Measurements from paper PMC4449002.
No constants are given. Whether binding was seen depends on the method and setting. Binding seen in cells or lysates may run through a third protein. Some results given as binding are weak or reduced against the parent protein; the word gives no strength.

By UniProt entry, the sequences of proteins in these tests, tags left out. Where a name states a change or a piece, a line headed by the entry shows the natural chain unless it says otherwise.
UniProt P12978: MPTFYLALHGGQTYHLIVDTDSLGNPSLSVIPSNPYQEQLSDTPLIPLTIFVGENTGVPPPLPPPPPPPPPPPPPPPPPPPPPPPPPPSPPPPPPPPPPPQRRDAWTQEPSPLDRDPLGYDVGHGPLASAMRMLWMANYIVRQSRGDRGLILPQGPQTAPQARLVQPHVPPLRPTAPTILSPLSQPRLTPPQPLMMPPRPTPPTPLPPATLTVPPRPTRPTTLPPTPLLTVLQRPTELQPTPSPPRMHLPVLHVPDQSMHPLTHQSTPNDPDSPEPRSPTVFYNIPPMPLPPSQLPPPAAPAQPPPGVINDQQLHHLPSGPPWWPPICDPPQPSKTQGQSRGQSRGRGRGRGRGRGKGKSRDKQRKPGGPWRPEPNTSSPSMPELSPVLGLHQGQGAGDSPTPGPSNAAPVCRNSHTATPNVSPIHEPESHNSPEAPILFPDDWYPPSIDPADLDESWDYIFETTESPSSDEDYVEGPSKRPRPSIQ
UniProt Q06330: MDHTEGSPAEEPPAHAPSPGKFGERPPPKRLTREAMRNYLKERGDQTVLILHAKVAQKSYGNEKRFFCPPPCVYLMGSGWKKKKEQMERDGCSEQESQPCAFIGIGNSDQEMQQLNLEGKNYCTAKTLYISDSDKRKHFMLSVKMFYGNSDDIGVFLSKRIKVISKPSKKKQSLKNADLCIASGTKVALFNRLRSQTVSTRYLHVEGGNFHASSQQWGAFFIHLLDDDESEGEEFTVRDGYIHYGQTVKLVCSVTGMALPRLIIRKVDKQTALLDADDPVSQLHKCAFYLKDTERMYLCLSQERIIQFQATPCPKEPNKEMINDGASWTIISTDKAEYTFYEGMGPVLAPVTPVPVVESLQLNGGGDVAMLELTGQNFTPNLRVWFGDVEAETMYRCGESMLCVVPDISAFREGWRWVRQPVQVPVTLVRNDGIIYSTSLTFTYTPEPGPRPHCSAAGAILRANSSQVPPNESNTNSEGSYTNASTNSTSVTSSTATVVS

Target: HA-tagged full-length EBNA-2, wild-type (Epstein-Barr virus, strain B95-8 (type 1)) (UniProt P12978)
Assay: co-IP; HA-tagged EBNA-2 or mutants co-expressed with FLAG-tagged F199 in EBV negative DG75 B cells; lysis in 1% NP-40 buffer (10 mM TRIS pH 7.4, 1 mM EDTA, 150 mM NaCl, 3% glycerol); IP with HA-specific antibodies; blots with EBNA-2, FLAG and CBF1/CSL specific antibodies

Row | Substance | binding
1 | CBF1/CSL (endogenous) (from UniProt Q06330 1-500) | binds
2 | FLAG-tagged EBNA-2 fragment encompassing amino acid 1–199 (from UniProt P12978 1-199) (domain or fragment) | binds
